# Taken from: PubChem BioAssay AID1224830 (NIAID, 2016)
# Test: 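Genes whose knock-down alters the TNF-alpha reporter response to LPS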 (primary screen)
# Cell system: human THP-1 monocytic leukaemia cells, TNF dual-luciferase reporter clone, PMA-differentiated to macrophage-like cells
# Reagents: siRNA pool against human genes, 50 nM
# Time to read-out: LPS for 4 h, given about 3 days after siRNA transfection
# Conditions: bacterial LPS (TLR4 ligand), 10 ng/ml
# Read-out: 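TNF firefly reporter luminescence divided by renilla, normalised to the plate median, then turned into a robust z-score for each replicate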
# Scale: TNF reporter robust z-score: higher = stronger TNF reporter response to LPS
# Call rule: 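Each well counts as active if its z-score is over 2.8 or under -1.5; controls are left without a call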
# Shown is an unselected part of about 18,000 reagents tested. About 2,900 of them (16%) count as active. 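Calls are made per well; low scores hint the gene aids the LPS response, high scores that it dampens it.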 Entries without a mark were called inactive. Repeated entries: four replicate wells of each siRNA pool.
gene,TNF reporter robust z-score
PRKD3,2.14
PRKD3,1.13
PRKD3,-0.14
PRKD3,2.55
IZUMO2,0.68
IZUMO2,0.98
IZUMO2,2.17
IZUMO2,0.23
MTFR1,0.27
MTFR1,2.12
MTFR1,1.56
MTFR1,0.4
OR6C70,-0.54
OR6C70,0.8
OR6C70,-0.11
OR6C70,-0.83
OR52J3,-0.97
OR52J3,0.31
OR52J3,-1.08
OR52J3,-0.55
DNAI7,-1.19
DNAI7,-1.82 (active)
DNAI7,-1.66 (active)
DNAI7,-1.08
APBB1IP,2.5
APBB1IP,3.49 (active)
APBB1IP,2.76
APBB1IP,3.36 (active)
SLCO3A1,1.07
SLCO3A1,0.37
SLCO3A1,0.43
SLCO3A1,0.4
DLGAP2,-0.83
DLGAP2,-0.51
DLGAP2,-0.3
DLGAP2,0.32
OR8B3,-0.03
OR8B3,0.56
OR8B3,-0.73
OR8B3,0.47
FES,0.37
FES,0.06
FES,1.94
FES,1.25
DNAAF5,-0.03
DNAAF5,1.33
DNAAF5,0.36
DNAAF5,1.37

7 entries from above, reformatted.
{"gene": "OR6C70", "TNF reporter robust z-score": -0.11}
{"gene": "OR6C70", "TNF reporter robust z-score": -0.83}
{"gene": "OR52J3", "TNF reporter robust z-score": -0.97}
{"gene": "OR52J3", "TNF reporter robust z-score": 0.31}
{"gene": "OR52J3", "TNF reporter robust z-score": -1.08}
{"gene": "OR52J3", "TNF reporter robust z-score": -0.55}
{"gene": "DNAI7", "TNF reporter robust z-score": -1.19}

The list goes on.
gene,TNF reporter robust z-score
TAMALIN,0.22
TAMALIN,0.02
TAMALIN,0.72
TAMALIN,0.44
TAS2R41,-1.01
TAS2R41,-0.28
TAS2R41,0.84
TAS2R41,0.53
MIMS2,0.61
MIMS2,-0.06
MIMS2,-0.18
MIMS2,-0.89
AKAP9,-0.39
AKAP9,-0.45
AKAP9,-0.65
AKAP9,-0.27
SCGB3A1,0.28
SCGB3A1,-0.05
SCGB3A1,0.06
SCGB3A1,-0.28
PCDHGA5,0.89
PCDHGA5,0.06
PCDHGA5,-0.15
PCDHGA5,0.67
GJB2,-0.32
GJB2,1.2
GJB2,0.66
GJB2,1.53
